One molecule from patent US20110239316A1 can be followed below.

Amino acid sequences for entries named in this document (tags omitted). Residues count along the entry.
UniProt P08581, residues 25-932: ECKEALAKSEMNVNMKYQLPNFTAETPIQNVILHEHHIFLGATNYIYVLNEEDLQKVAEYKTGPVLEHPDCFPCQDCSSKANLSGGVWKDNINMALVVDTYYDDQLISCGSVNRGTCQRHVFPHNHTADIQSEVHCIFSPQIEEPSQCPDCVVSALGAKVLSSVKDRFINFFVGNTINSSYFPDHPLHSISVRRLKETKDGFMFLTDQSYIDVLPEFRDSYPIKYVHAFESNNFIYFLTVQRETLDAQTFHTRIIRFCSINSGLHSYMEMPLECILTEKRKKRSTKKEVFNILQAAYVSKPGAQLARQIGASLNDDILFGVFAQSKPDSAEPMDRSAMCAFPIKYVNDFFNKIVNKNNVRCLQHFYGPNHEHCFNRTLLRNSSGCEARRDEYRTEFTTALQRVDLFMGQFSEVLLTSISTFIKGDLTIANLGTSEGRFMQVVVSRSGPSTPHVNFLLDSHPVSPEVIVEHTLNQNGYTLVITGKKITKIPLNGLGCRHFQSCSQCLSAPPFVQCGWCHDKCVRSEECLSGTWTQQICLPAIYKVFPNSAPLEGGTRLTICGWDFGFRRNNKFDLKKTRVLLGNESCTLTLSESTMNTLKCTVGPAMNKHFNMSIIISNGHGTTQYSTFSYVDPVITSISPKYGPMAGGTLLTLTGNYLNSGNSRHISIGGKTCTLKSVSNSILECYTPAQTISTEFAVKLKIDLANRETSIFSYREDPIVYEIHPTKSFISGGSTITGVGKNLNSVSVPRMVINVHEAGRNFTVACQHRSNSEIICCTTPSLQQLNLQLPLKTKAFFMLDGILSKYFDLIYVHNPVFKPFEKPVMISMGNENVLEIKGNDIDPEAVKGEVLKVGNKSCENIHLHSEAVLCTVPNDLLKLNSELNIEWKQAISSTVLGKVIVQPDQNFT

No constants are given. Whether binding was seen depends on the method and setting. Some results given as binding are weak or reduced against the parent protein; the word gives no strength.

The assay deals with recombinant dimeric c-Met from R&D Systems (UniProt P08581). Kind of assay: direct ELISA, recombinant dimeric c-Met coated at 1.25 µg/ml, anti-mouse IgG HRP. (In general: In an ELISA, binding on a coated surface is turned into a signal by an enzyme label.)

B1: murine 224G11 Mab (antibody, V domains shown)
VH: EVQLQQSGPELVKPGASVKISCKTSGYIFTAYTMHWVRQSLGESLDWIGGIKPNNGLANYNQKFKGKATLTVDKSSSTAYMDLRSLTSEDSAVYYCARSEITTEFDYWGQGTALTVSS
VL: DIVLTQSPASLAVSLGQRATISCRASESVDSYANSFMHWYQQKPGQPPKLLIYRASNLESGIPARFSGSGSRTDFTLTINPVEADDVATYYCQQSKEDPLTFGSGTKLEMKR
As to B1, the binding entry was “binds”.
